Results are given in words; binding and its absence hold for the method and conditions named. Some results given as binding are weak or reduced against the parent protein; the word gives no strength.
Assays:
[1] = target: monkey BCMA (recombinant antigen, tag not stated for the assay) (monkey); test: ELISA, antigen coated 2 ug/mL
[2] = target: monkey BCMA (recombinant antigen, tag not stated for the assay) (monkey); test: ELISA, FIG. 4(B), monkey BCMA
[3] = target: monkey BCMA (recombinant antigen, tag not stated for the assay) (monkey); test: ELISA, FIG. 9(B)

Measured: binding

B1: GSK2857916 (positive control antibody, not coupled to the toxin molecule) (antibody, V domains shown)
VH: QVQLVQSGAEVKKPGSSVKVSCKASGGTFSNYWMHWVRQAPGQGLEWMGATYRGHSDTYYNQKFKGRVTITADKSTSTAYMELSSLRSEDTAVYYCARGAIYDGYDVLDNWGQGTLVTVSS
VL: DIQMTQSPSSLSASVGDRVTITCSASQDISNYLNWYQQKPGKAPKLLIYYTSNLHSGVPSRFSGSGSGTDFTLTISSLQPEDFATYYCQQYRKLPWTFGQGTKLEIK
binds: all assays above

From patent US20240052048A1
